The values below come from the supplement of paper PMC12819154, “High-throughput peptide-centric local stability assay extends protein–ligand identification to membrane proteins, tissues and bacteria” (Nature Structural & Molecular Biology, 2025).

By UniProt entry, the sequences of proteins in these tests, tags left out. Where a name states a change or a piece, a line headed by the entry shows the natural chain unless it says otherwise.
UniProt Q8BT14: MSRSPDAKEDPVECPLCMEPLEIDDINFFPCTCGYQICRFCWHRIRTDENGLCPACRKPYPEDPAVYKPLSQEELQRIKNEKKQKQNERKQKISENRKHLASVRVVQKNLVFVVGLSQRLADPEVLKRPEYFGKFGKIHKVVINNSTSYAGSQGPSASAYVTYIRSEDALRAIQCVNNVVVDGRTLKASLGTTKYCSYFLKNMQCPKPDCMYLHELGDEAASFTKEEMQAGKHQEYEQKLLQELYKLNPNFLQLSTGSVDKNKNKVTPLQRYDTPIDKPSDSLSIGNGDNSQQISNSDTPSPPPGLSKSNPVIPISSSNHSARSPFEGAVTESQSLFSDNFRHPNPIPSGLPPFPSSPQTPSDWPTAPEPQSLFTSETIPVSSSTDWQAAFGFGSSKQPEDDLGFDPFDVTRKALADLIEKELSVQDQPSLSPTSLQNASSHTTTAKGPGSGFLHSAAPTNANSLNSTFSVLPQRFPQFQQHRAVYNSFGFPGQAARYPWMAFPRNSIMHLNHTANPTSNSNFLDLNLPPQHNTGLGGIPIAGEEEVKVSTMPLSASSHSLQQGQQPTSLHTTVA
UniProt Q8BPZ8: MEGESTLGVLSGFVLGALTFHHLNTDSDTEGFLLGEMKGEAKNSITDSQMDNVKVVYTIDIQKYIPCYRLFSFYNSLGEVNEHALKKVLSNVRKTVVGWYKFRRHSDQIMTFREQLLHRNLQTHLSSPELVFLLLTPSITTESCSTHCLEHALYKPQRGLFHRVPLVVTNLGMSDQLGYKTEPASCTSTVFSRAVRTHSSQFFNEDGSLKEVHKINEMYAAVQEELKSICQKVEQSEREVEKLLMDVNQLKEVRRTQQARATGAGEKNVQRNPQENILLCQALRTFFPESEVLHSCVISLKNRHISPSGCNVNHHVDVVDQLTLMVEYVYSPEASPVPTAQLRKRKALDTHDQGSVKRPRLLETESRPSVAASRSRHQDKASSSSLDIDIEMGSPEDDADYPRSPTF
UniProt Q8BRT1: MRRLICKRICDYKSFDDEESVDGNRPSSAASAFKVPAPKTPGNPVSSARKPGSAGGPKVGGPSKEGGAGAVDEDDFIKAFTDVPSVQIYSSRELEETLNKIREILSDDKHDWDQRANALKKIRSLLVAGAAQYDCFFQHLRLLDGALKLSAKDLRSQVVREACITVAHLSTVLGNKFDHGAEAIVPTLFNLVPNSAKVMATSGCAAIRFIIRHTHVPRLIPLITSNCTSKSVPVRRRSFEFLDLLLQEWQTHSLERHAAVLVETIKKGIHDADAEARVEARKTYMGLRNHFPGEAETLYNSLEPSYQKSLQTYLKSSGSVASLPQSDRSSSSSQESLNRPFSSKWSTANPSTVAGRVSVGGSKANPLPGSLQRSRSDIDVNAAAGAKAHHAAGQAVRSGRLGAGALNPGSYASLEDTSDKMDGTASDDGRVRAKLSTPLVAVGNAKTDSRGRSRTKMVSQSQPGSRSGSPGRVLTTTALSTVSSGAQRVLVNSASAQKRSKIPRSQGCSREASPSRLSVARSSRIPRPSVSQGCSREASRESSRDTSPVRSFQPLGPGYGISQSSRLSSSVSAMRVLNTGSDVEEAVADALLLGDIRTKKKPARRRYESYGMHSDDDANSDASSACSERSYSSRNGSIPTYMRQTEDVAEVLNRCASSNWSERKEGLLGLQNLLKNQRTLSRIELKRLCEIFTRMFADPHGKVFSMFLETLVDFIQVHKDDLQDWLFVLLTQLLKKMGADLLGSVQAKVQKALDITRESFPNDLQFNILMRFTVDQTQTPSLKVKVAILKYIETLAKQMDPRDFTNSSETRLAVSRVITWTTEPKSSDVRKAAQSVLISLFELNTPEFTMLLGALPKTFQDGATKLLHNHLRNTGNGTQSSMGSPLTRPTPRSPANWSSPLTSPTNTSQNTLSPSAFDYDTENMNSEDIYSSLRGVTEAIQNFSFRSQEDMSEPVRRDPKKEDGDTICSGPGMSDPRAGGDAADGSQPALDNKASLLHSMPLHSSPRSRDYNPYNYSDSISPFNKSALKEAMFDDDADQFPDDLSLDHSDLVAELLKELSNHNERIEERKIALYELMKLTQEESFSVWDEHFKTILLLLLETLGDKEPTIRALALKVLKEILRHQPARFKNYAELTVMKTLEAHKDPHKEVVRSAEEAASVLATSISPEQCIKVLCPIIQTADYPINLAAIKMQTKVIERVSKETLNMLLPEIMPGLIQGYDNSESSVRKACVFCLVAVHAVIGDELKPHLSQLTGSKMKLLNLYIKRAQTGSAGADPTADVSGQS
UniProt Q8BIE6: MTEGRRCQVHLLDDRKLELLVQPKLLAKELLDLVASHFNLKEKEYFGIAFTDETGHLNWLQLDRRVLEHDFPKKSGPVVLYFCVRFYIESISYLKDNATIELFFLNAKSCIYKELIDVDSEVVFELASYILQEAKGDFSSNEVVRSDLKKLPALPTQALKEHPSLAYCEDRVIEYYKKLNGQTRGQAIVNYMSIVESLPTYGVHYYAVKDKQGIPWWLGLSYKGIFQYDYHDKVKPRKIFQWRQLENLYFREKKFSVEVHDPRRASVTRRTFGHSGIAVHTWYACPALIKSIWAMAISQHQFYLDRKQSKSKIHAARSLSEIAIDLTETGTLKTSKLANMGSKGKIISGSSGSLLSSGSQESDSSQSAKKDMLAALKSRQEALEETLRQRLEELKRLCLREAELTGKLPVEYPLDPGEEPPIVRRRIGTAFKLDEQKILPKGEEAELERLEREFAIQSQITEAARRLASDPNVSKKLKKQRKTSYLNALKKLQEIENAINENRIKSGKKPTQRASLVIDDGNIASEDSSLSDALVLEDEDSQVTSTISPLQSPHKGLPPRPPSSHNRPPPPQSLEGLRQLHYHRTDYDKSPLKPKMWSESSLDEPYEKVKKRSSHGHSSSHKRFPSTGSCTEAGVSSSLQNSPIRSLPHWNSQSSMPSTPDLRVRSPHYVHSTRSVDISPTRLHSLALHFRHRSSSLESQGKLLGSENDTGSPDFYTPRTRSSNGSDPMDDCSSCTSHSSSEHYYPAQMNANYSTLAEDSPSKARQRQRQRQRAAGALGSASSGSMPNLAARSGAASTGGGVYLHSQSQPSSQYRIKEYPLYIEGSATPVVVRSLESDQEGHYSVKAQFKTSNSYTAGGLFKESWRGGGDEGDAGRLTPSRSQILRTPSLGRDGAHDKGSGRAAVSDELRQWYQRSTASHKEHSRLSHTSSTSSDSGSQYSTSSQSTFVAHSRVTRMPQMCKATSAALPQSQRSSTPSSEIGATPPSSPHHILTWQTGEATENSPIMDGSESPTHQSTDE
UniProt Q8BPB5: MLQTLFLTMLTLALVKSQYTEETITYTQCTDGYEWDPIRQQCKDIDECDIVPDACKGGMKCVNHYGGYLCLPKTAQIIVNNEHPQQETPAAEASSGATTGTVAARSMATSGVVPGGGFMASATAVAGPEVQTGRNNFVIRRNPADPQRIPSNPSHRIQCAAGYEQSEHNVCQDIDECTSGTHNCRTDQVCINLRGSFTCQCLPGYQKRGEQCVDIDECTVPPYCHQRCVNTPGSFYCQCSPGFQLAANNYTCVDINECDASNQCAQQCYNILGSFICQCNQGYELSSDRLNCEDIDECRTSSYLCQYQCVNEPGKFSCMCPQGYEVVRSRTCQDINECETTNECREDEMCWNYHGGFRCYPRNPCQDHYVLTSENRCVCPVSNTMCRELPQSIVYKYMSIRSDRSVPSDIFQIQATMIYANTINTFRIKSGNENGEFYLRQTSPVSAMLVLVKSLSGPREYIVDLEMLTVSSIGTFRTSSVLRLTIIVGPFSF

Compound in this experiment: CN[C@@H]1C[C@H]2O[C@@](C)([C@@H]1OC)n1c3ccccc3c3c4c(c5c6ccccc6n2c5c31)C(=O)NC4 [staurosporine]
The experiment is described as follows: log2 fold change of tryptic peptide abundance, ligand vs vehicle (limited proteolysis) (log2 ratio); higher = more trypsin-susceptible (destabilized). Particulars: ligand concentration: 20 uM; sample: mouse liver crude lysate; replicate design: treated separately.

The list shows a part of the results. Most values lie at the level of the controls, where differences are scatter.

Regarding “UniProt Q8BT14 (peptide sequence: YPWMAFPR, peptide start residue: 498)”, the log2 fold change is 0.397.

Consider “UniProt Q8BPZ8 (peptide sequence: ALDTHDQGSVK, peptide start residue: 347)”, for which the log2 fold change was -0.469.

As for “UniProt Q8BRT1 (peptide sequence: GIHDADAEAR, peptide start residue: 268)”, the log2 fold change was -0.473.

In the case of “UniProt Q8BIE6 (peptide sequence: TDYDKSPLKPK, peptide start residue: 585)”, the log2 fold change is -0.174.

For “UniProt Q8BPB5 (peptide sequence: NPADPQRIPSNPSHR, peptide start residue: 142)”, the log2 fold change was 0.253.
